Test results taken from the supplement of paper PMC7666118.
The list shows a part of the results.

The chains behind the UniProt entries cited, without tags or fusion partners. Where a name states a change or a piece, a line headed by the entry shows the natural chain unless it says otherwise.
UniProt Q5MNZ6: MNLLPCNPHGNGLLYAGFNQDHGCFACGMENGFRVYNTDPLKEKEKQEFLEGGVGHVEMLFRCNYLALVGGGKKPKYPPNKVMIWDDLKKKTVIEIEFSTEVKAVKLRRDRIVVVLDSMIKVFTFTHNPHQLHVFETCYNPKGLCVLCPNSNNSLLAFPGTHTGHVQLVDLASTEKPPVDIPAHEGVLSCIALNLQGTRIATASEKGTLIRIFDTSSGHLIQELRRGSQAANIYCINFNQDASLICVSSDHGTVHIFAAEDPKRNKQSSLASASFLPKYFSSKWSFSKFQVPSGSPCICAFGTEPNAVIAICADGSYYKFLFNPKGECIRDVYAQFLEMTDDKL
UniProt Q8TEB1, whole entry: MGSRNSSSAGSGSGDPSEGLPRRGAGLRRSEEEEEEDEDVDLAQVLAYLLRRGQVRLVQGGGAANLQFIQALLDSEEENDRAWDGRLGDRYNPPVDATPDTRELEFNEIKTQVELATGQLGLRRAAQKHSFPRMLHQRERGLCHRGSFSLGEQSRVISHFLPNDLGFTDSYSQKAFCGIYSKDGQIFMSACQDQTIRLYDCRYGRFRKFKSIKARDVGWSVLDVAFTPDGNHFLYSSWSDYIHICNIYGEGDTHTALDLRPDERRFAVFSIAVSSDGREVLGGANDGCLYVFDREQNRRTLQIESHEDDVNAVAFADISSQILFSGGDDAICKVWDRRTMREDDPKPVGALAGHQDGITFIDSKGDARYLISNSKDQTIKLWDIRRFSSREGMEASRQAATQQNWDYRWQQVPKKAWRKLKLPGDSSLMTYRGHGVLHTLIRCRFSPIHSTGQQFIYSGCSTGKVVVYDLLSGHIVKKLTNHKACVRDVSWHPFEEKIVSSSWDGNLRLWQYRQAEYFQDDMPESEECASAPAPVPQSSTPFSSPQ
UniProt O14980, whole entry: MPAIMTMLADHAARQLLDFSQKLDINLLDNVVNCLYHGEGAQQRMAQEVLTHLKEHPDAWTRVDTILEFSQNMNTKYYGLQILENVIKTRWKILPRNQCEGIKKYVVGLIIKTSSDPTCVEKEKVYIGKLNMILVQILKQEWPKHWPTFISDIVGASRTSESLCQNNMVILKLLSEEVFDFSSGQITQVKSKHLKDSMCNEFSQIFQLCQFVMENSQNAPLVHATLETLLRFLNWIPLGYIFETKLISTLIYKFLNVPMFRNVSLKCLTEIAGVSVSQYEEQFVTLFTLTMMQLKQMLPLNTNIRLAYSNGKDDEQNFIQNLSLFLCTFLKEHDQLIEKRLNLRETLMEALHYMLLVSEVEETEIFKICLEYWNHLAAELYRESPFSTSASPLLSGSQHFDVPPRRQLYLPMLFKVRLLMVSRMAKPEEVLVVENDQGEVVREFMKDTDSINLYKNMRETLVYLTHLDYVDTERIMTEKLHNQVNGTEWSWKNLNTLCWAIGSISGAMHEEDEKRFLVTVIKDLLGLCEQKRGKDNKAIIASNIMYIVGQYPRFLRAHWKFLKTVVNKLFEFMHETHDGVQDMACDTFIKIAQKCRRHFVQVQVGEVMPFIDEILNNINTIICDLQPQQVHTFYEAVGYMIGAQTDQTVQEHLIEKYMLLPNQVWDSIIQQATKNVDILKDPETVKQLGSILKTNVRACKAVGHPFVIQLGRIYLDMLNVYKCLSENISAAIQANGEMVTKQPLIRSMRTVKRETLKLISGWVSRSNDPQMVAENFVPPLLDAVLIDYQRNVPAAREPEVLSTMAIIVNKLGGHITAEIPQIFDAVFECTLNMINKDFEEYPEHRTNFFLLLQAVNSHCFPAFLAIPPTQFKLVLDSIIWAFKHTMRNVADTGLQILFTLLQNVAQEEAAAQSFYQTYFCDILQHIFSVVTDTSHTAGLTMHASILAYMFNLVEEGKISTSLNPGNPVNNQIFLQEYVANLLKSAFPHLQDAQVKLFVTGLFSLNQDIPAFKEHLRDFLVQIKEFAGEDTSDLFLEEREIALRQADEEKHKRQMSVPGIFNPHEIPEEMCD
UniProt Q499Z4: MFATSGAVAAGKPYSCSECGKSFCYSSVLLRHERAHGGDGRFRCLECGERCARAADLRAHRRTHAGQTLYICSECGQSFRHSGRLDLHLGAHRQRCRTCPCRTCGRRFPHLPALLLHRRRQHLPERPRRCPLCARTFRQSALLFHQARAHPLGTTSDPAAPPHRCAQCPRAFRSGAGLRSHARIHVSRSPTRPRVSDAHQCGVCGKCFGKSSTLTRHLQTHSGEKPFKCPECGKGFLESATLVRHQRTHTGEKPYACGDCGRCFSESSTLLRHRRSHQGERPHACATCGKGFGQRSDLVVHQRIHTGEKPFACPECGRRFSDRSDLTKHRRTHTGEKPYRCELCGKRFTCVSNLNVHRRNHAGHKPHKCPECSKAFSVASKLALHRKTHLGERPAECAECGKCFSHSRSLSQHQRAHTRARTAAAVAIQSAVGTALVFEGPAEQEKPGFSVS
UniProt O76080: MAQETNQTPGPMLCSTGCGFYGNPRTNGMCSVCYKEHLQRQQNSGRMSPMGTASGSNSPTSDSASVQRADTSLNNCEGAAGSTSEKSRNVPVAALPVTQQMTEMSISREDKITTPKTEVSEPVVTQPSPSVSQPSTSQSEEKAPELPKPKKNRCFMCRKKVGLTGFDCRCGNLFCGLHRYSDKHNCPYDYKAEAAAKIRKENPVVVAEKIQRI
UniProt Q9H977: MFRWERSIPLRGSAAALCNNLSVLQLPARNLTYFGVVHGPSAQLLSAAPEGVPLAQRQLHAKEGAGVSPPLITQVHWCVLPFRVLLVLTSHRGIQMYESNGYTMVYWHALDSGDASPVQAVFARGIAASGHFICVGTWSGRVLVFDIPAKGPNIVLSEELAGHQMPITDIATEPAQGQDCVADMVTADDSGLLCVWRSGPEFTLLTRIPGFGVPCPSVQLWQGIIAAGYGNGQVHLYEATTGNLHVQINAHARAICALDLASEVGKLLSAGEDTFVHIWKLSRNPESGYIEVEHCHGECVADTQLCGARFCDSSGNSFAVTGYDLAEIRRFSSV
UniProt Q8TAF3: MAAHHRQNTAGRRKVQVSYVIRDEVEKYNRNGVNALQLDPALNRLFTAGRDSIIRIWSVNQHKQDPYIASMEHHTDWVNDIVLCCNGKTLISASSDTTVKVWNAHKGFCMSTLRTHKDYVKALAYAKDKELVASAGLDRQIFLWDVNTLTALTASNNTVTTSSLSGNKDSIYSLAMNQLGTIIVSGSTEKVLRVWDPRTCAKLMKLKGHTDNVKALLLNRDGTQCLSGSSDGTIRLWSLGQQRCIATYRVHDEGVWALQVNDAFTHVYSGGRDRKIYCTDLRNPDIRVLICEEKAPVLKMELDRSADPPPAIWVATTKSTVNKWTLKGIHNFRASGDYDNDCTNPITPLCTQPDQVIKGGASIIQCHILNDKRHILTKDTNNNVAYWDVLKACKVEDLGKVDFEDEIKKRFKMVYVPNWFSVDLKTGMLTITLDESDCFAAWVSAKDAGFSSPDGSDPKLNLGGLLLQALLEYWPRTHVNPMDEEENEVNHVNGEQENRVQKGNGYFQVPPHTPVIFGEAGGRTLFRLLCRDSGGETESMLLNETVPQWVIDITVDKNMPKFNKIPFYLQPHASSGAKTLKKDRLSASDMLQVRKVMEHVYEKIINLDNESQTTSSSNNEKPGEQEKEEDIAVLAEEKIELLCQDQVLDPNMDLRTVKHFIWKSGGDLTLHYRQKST
UniProt Q15072: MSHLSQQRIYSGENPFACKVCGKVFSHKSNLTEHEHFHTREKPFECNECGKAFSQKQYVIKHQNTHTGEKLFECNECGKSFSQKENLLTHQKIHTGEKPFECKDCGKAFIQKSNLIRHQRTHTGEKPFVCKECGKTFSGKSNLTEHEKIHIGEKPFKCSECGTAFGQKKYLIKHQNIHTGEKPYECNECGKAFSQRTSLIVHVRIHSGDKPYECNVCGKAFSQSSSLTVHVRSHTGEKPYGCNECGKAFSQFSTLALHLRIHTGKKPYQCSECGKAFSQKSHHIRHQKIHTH
UniProt Q9UL40: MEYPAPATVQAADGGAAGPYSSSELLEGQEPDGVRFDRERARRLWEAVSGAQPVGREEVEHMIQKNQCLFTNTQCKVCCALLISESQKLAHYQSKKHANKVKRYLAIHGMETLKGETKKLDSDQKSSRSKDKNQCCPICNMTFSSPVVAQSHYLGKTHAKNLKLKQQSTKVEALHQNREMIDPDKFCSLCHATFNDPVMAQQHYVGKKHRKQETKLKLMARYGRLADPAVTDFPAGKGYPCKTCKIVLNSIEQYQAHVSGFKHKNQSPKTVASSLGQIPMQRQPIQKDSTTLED
UniProt P67809, whole entry: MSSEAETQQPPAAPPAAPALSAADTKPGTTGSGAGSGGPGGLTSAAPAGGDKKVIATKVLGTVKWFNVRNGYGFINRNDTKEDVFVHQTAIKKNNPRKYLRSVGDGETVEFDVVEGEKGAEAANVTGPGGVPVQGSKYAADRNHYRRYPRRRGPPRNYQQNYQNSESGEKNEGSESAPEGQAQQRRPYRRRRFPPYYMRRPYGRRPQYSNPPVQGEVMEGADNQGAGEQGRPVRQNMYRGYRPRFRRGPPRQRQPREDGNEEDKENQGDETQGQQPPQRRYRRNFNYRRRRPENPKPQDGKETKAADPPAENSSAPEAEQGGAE
UniProt A2A288: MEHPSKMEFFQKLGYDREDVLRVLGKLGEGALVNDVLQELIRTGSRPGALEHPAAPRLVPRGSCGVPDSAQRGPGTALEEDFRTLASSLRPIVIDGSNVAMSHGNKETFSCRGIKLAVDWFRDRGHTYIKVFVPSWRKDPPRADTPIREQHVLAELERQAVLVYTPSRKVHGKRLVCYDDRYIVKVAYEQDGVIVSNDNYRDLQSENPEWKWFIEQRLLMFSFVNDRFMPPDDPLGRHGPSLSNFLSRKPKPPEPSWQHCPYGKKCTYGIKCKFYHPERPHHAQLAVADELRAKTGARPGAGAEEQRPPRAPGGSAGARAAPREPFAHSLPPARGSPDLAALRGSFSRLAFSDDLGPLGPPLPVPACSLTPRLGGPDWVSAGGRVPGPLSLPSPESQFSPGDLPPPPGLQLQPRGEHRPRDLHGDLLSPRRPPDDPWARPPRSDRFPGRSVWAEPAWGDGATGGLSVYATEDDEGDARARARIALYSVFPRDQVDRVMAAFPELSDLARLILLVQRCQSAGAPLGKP
UniProt Q96MX6, whole entry: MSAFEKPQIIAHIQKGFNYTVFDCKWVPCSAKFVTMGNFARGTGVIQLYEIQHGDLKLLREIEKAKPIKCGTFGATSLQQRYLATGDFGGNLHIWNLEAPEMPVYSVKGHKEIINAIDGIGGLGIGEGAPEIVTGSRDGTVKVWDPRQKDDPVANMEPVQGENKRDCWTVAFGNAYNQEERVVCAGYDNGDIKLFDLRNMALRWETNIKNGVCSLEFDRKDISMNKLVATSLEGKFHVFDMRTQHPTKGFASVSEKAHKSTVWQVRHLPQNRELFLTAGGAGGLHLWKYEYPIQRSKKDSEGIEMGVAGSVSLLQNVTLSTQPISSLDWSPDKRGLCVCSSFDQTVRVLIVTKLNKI
UniProt Q9BSR8: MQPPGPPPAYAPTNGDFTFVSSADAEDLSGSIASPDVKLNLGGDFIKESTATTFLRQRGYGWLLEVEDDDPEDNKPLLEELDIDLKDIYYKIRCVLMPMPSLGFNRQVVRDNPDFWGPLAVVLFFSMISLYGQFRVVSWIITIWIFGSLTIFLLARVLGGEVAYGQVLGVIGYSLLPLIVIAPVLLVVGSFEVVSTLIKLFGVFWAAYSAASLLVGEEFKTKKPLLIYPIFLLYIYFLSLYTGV
UniProt Q96IQ9: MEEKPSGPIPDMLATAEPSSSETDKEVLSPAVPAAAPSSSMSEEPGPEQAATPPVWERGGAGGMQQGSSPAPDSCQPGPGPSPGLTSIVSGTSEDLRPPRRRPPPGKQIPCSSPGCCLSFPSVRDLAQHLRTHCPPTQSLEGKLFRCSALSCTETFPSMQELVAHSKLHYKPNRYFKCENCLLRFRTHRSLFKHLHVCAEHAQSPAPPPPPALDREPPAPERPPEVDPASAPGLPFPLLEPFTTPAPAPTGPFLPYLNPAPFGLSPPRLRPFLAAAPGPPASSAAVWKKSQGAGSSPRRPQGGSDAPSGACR
UniProt Q6P4I2: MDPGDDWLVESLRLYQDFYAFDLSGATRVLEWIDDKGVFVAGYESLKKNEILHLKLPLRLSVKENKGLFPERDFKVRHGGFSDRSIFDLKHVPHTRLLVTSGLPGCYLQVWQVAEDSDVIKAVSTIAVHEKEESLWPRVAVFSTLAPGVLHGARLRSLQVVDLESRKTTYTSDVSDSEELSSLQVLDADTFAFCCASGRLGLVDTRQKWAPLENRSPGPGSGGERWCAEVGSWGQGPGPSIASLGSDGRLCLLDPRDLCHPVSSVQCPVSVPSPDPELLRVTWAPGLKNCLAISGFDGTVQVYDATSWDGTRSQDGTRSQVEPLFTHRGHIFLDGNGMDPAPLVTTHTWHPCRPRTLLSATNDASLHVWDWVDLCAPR

The targets below were run with COc1ccc(Cn2ccc3cc(C)c(C(=O)NO)cc32)cc1 (assay: dose-dependent thermal stabilisation call (2D-TPP, DLPTP, 10% FDR) (binary (1 = stabilised)); higher = stabilised by the compound). Conditions: system: HL-60 intact cells; concentration range 0.04-10 µM.
Description: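 2D thermal proteome profiling in intact HL-60 cells treated with BRD-3811 (0, 0.04, 0.29, 2, 10 uM) for 90 min at 37 C, then heated 3 min at one of 12 temperatures (42-63.9 C). Soluble protein was quantified by TMT10 MS. The value is the DLPTP call of the paper: dose-dependent thermal stabilisation over all temperatures at 10% FDR (F-test of a dose-response against a flat model); one experiment, one call per tested protein.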
In the case of WDR45L (UniProt Q5MNZ6), the “dose-dependent thermal stabilisation call” value is reported as inactive: 0.
In the case of YES1 (UniProt P07947), the “dose-dependent thermal stabilisation call” value is reported as inactive: 0.
For ZBTB9 (UniProt Q96C00), the “dose-dependent thermal stabilisation call” value was inactive: 0.
In the case of WDR23 (UniProt Q8TEB1), the “dose-dependent thermal stabilisation call” value is reported as inactive: 0.
In the case of XPO1 (UniProt O14980), the “dose-dependent thermal stabilisation call” value is reported as inactive: 0.
For XYLT1 (UniProt Q86Y38), the “dose-dependent thermal stabilisation call” value was inactive: 0.
ZNF672 (UniProt Q499Z4) was tested, and the “dose-dependent thermal stabilisation call” value was inactive: 0.
In the case of ZFAND5 (UniProt O76080), the “dose-dependent thermal stabilisation call” value is reported as inactive: 0.
For WDR54 (UniProt Q9H977), the “dose-dependent thermal stabilisation call” value was inactive: 0.
In the case of WDR48 (UniProt Q8TAF3), the “dose-dependent thermal stabilisation call” value is reported as inactive: 0.
With ZNF146 (UniProt Q15072) the “dose-dependent thermal stabilisation call” value was inactive: 0.
With ZNF618 (UniProt Q5T7W0) the “dose-dependent thermal stabilisation call” value was inactive: 0.
In the case of ZNF691 (UniProt Q5VV52), the “dose-dependent thermal stabilisation call” value is reported as inactive: 0.
ZNF346 (UniProt Q9UL40) was tested, and the “dose-dependent thermal stabilisation call” value was inactive: 0.
With YBX1 (UniProt P67809) the “dose-dependent thermal stabilisation call” value was inactive: 0.
ZGPAT (UniProt Q8N5A5) was tested, and the “dose-dependent thermal stabilisation call” value was inactive: 0.
ZC3H12D (UniProt A2A288) was tested, and the “dose-dependent thermal stabilisation call” value was inactive: 0.
XPO6 (UniProt Q96QU8) was tested, and the “dose-dependent thermal stabilisation call” value was inactive: 0.
For WDR32 (UniProt Q5QP82), the “dose-dependent thermal stabilisation call” value was inactive: 0.
In the case of WDR92 (UniProt Q96MX6), the “dose-dependent thermal stabilisation call” value is reported as inactive: 0.
With WDR70 (UniProt Q9NW82) the “dose-dependent thermal stabilisation call” value was inactive: 0.
For YIPF4 (UniProt Q9BSR8), the “dose-dependent thermal stabilisation call” value was inactive: 0.
With ZWILCH (UniProt Q9H900) the “dose-dependent thermal stabilisation call” value was inactive: 0.
WDR5 (UniProt P61964) was tested, and the “dose-dependent thermal stabilisation call” value was inactive: 0.
In the case of WDSOF1 (UniProt Q9NV06), the “dose-dependent thermal stabilisation call” value is reported as inactive: 0.
In the case of ZNF414 (UniProt Q96IQ9), the “dose-dependent thermal stabilisation call” value is reported as inactive: 0.
WDR73 (UniProt Q6P4I2) was tested, and the “dose-dependent thermal stabilisation call” value was inactive: 0.
